# Results deposited as PubChem BioAssay AID743454 (Peter MacCallum Cancer Centre, 2014).
# Purpose: 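Genes whose loss kills vorinostat-resistant colon cancer cells under vorinostat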 (primary screen)
# Cells: human HCT116-VR colon cancer cells, selected for vorinostat resistance
# Reagent: siRNA pool against human genes, 40 nM siRNA pool
# Timing: vorinostat for 24 h, read-out about 72 h after transfection
# Challenge: vorinostat at 2.5 µM final
# Detection: 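Cell viability by CellTiter-Fluor and caspase 3/7 activity by luminescence, each scaled to mock wells per plate, duplicates averaged, then robust z-scored over all plates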
# Reading the numbers: viability robust z-score: higher = more viable cells than screen typical; caspase robust z-score: higher = more caspase 3/7 activity than screen typical
# Active means: 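Hits are knock-downs in viability class RV1/RV2 or caspase class CA1/CA2, excluding ones that killed cells in the no-drug cell-count arm; hits then retested with single siRNAs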
# This is a random part of about 18,000 deposited reagents. 450 of all reagents (2.5%) count as active. 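Single biological run; no consistent viability z cut-off exists, so the class columns, not z-scores, define the calls.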 A number with no mark means an inactive call.
target,viability hit class,caspase hit class,viability robust z-score,caspase robust z-score
FIBIN (fin bud initiation factor homolog),no change,no change,0.3,0.42
MPZ (myelin protein zero),no change,no change,-2.12,2.96
"PABPN1L (PABPN1 like, cytoplasmic)",no change,no change,0.13,2.4
GLT8D1 (glycosyltransferase 8 domain containing 1),no change,no change,0.8,-0.66
MXRA5 (matrix remodeling associated 5),no change,no change,0.81,0.29
VSIG10 (V-set and immunoglobulin domain containing 10),no change,no change,-0.55,-0.8
DIP2C (DIP2 acetate--CoA ligase C (putative)),no change,no change,2.13,-0.21
STOML2 (stomatin like 2),no change,no change,-1.4,0.71
MEIOB (meiosis specific with OB-fold),no change,no change,-0.88,-1.13
CACNG2 (calcium voltage-gated channel auxiliary subunit gamma 2),no change,no change,1.17,0.08
MIX23 (mitochondrial matrix import factor 23),no change,no change,-0.66,0.92
DTX1 (deltex E3 ubiquitin ligase 1),no change,no change,-1.29,3.02
ZNF721 (zinc finger protein 721),no change,no change,-0.68,0.07
LOX (lysyl oxidase),no change,no change,0,-1.11
NCR3 (natural cytotoxicity triggering receptor 3),no change,no change,0.1,0.39
SAMD14 (sterile alpha motif domain containing 14),no change,no change,0.48,0.34
MEPCE (methylphosphate capping enzyme),no change,no change,-2.6,-0.77
ISCA1 (iron-sulfur cluster assembly 1),no change,no change,-0.29,-0.76
DHRS7 (dehydrogenase/reductase 7),no change,no change,-0.49,-0.32
"LRIT2 (leucine rich repeat, Ig-like and transmembrane domains 2)",no change,no change,0.8,1.98
DEFB105B (defensin beta 105B),no change,no change,-1.94,1
TMEM259 (transmembrane protein 259),no change,no change,-0.64,0.64
MLN (motilin),no change,no change,-0.14,0.28
SDAD1 (SDA1 domain containing 1),no change,no change,-1.83,0.38
GSTT2 (glutathione S-transferase theta 2 (gene/pseudogene)),no change,no change,0.45,-0.08
TMCO4 (transmembrane and coiled-coil domains 4),no change,no change,-0.19,-0.53
CASP2 (caspase 2),no change,no change,0.6,-0.88
GHRH (growth hormone releasing hormone),no change,no change,-0.96,-0.89
RNF141 (ring finger protein 141),no change,no change,-0.54,-0.32
DHODH (dihydroorotate dehydrogenase (quinone)),no change,no change,0.54,-0.82
ACSS2 (acyl-CoA synthetase short chain family member 2),no change,no change,2.09,2.49
CCBE1 (collagen and calcium binding EGF domains 1),RV2 (reduced viability) (active),no change,-2.92,2.66
VPS45 (vacuolar protein sorting 45 homolog),no change,no change,-0.76,-0.29
BLVRB (biliverdin reductase B),no change,no change,0.26,0.09
CBX7 (chromobox 7),no change (active),CA1 (caspase activation),0.38,6.73
ZNF25 (zinc finger protein 25),no change,no change,-0.7,-1.35
TAF8 (TATA-box binding protein associated factor 8),no change,no change,1.02,0.41
FICD (FIC domain protein adenylyltransferase),no change,no change,-0.18,-1.4
SH3BP5L (SH3 binding domain protein 5 like),no change,no change,-0.15,1.18
BPY2C (basic charge Y-linked 2C),no change,no change,-0.72,4.09
MAP3K12 (mitogen-activated protein kinase kinase kinase 12),no change,no change,0.76,0.67
TOM1L1 (target of myb1 like 1 membrane trafficking protein),no change,no change,0.72,-0.93
SACK1C (scaffolding CK1 anchoring protein C),no change,no change,-0.46,-0.85
MTSS2 (MTSS I-BAR domain containing 2),no change,no change,-0.34,-0.02
ADGRG3 (adhesion G protein-coupled receptor G3),no change,no change,-0.36,0.66
ANKRD13C (ankyrin repeat domain 13C),no change,no change,0.18,-0.09
STEAP4 (STEAP4 metalloreductase),no change,no change,0.06,2.4
TAS2R4 (taste 2 receptor member 4),no change,no change,0.57,-0.54
DKK4 (dickkopf Wnt signaling pathway inhibitor 4),no change,no change,1.08,-1.19
REN (renin),no change,no change,-0.3,-0.62
CYB5R3 (cytochrome b5 reductase 3),no change,no change,-1.18,1.27
ITGB1 (integrin subunit beta 1),no change,no change,-1.7,2.14
APOBR (apolipoprotein B receptor),no change,no change,1.54,2.23
MORC4 (MORC family CW-type zinc finger 4),no change,no change,-0.28,0.84
OMG (oligodendrocyte myelin glycoprotein),no change,no change,-1.22,2.62
MRPS22 (mitochondrial ribosomal protein S22),no change,no change,1.37,-0.84
CLNK (cytokine dependent hematopoietic cell linker),no change,no change,-0.14,-1.29
